Test results taken from patent US20100167335A1, “METHODS FOR DIAGNOSING AND TREATING ALLERGIES” (The Research Foundation of State University of New York, priority 2008, published 2010).
At least one structure is not confirmed: it was looked up by name or label, or the drawing left a doubt.

Columns and labels:
[1] = test system: IL-4/antiCD-40 stimulated PBMC of allergic asthmatics; settings: dose-dependent fashion; cited from earlier work
[2] = test system: PBMC from allergic asthmatics (serum IgE+) infected with Cpn TW-183; test: IgE production by PBMC infected with Cpn TW-183 (MOI=1), total IgE by ELISA (Example 2); assay type: cell-based, human; settings: doxycycline 1 μg/ml, day 10 post-infection, p<0.05
[3] = test system: activated murine B cells; settings: in vitro; cited from earlier work

Row | Structure (SMILES) | in vitro production of IgE by IL-4/antiCD-40 stimulated PBMC [1] | Cpn mediated IgE production in PBMCs from asthmatic patients [2] | immunoglobulin secretion and class switching [3]
1 | CN(C)c1ccc(O)c2c1C[C@H]1C[C@H]3[C@H](N(C)C)C(O)=C(C(N)=O)C(=O)[C@@]3(O)C(O)=C1C2=O [Minocycline, minocycline] | suppress |  | 
2 | C[C@H]1c2cccc(O)c2C(=O)C2=C(O)[C@]3(O)C(=O)C(C(N)=O)=C(O)[C@@H](N(C)C)[C@@H]3[C@@H](O)[C@@H]21 [doxycycline] | suppress | suppressed | suppress
